Laboratory results as given in patent publication US20250144081A1, “METHODS FOR REDUCING ALCOHOL, DRUG, AND FOOD INTAKE” (The Scripps Research Institute, priority 2022, published 2025).
“Also recorded” adds a separate entry of the source.

Key:
C57BL/6J mice = test: blood alcohol levels (BALs) after alcohol injection, alcohol metabolism; type: in vivo, mouse
MeCP2^308/Y mice = test: DID paradigm in low drinking MeCP2^308/Y mice, alcohol intake and BALs; type: in vivo, mouse; settings: PF-543 10 mg/kg i.p., p=0.06

For `CCOc1ccc(-c2nc(-c3cccc4c3CCC4NCCO)no2)cc1OCC` (stereo not drawn) [CYM-5442], the “alcohol metabolism (BALs after alcohol injection 3.5 g/kg)” value (C57BL/6J mice; CYM-5442 2.5 mg/kg i.p., male C57BL/6J mice, 2.5 mg/kg) was “did not affect; also recorded: does not alter”.
In the case of `Cc1cc(CS(=O)(=O)c2ccccc2)cc(OCc2ccc(CN3CCC[C@@H]3CO)cc2)c1` [PF-543], the “BALs at the end of the 4 h drinking session in MeCP2^308/Y mice” value (MeCP2^308/Y mice) is reported as “increased; also recorded: higher”.
`CC(C)Oc1ccc(-c2nc(-c3cccc4c3CC[C@@H]4NCCO)no2)cc1C#N` [ozanimod, Ozanimod (RPC1063)] was tested, and the “blood alcohol levels (BALs) 70 min after alcohol injection (alcohol metabolism)” value (C57BL/6J mice; ozanimod 0.1 and 0.3 mg/kg i.p., C57BL/6J mice) was “without altering; also recorded: not affected”.
